Data from PubChem BioAssay AID252 (DTP/NCI, 2004).
The list does not hold the whole screen: it gathers tests that were run many times, whatever their T/C, doses with no T/C, and many T/C values between a quarter and a half above the control. Further doses and runs are listed elsewhere. T/C: endpoint of the treated group in % of that of the vehicle group. Some entries give survivors of the animals treated and no T/C: the source files T/C as zero there, which appears to mark a toxic dose or a test without result, not a measured value. Some survivor counts are full or nearly so, which does not show that the dose was tolerated: survival well below the control is almost never listed, so the zero probably covers shortened survival too. Counts of survivors are from the toxicity check (mostly the fifth day) where no day follows; animals may have died later. Schedules are NCI's codes, read here as Q, the interval in days (D) or hours (H), X, the number of doses. Where survival is the endpoint, this PubChem deposit counts one and a half times the control or more as active, and values a quarter to a half above the control carry no call in these data; other NCI protocols may use other cut-offs. Some doses were run more than once; the values are given in rising order. Some T/C values are followed by the survivors on the day toxicity was checked, most often the fifth; where none is given, no animal had died by that day.

Test system: BDF1 mice, intracerebral L1210 leukemia, survival T/C
Test: NCI In Vivo Anticancer Drug Screen. Data for tumor model L1210 Leukemia (intracerebral) in B6D2F1 (BDF1) mice
Conditions: higher T/C = longer survival
How it was run: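 Tumour was transplanted, animals received compound or vehicle, then survival in each group was measured and treated divided by control.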

Structure (SMILES): CC(CN1CC(=O)NC(=O)C1)N1CC(=O)NC(=O)C1 (configuration not stated)
- T/C (T/C endpoint: mean survival time, dose: 3.12 mg/kg/injection, schedule: Q03HX024 (ip), vehicle: steroid suspending solution, evaluated on day 33): 125 % of control
- T/C (T/C endpoint: mean survival time, dose: 3.12 mg/kg/injection, schedule: Q03HX024 (ip), vehicle: steroid suspending solution, evaluated on day 40): 131 % of control
- T/C (T/C endpoint: mean survival time, dose: 6.25 mg/kg/injection, schedule: Q03HX024 (ip), vehicle: steroid suspending solution, evaluated on day 21): 128 % of control
- T/C (T/C endpoint: mean survival time, dose: 6.25 mg/kg/injection, schedule: Q03HX024 (ip), vehicle: steroid suspending solution, evaluated on day 33): 133 % of control
- T/C (T/C endpoint: mean survival time, dose: 6.25 mg/kg/injection, schedule: Q03HX024 (ip), vehicle: steroid suspending solution, evaluated on day 40): 143 % of control
- T/C (T/C endpoint: mean survival time, dose: 25.0 mg/kg/injection, schedule: Q01DX009 (ip), vehicle: steroid suspending solution): 132 % of control
- survivor count (T/C endpoint: mean survival time, dose: 25.0 mg/kg/injection, schedule: Q03HX024 (ip), vehicle: steroid suspending solution): 5 of 8
- T/C (T/C endpoint: mean survival time, dose: 50.0 mg/kg/injection, schedule: Q01DX009 (ip), vehicle: steroid suspending solution): 142 % of control
- T/C (T/C endpoint: mean survival time, dose: 100.0 mg/kg/injection, schedule: Q01DX001 (ip), vehicle: steroid suspending solution): 128 % of control
- T/C (T/C endpoint: mean survival time, dose: 100.0 mg/kg/injection, schedule: Q04DX003 (ip), vehicle: steroid suspending solution, evaluated on day 19): 128 % of control
- T/C (T/C endpoint: mean survival time, dose: 100.0 mg/kg/injection, schedule: Q04DX003 (ip), vehicle: steroid suspending solution, evaluated on day 21): 124 % of control
- T/C (T/C endpoint: mean survival time, dose: 100.0 mg/kg/injection, schedule: Q04DX003 (ip), vehicle: steroid suspending solution, evaluated on day 33): 124 % of control
- T/C (T/C endpoint: mean survival time, dose: 100.0 mg/kg/injection, schedule: Q04DX003 (ip), vehicle: steroid suspending solution, evaluated on day 40): 119 % of control
- T/C (T/C endpoint: mean survival time, dose: 108.0 mg/kg/injection, schedule: Q04DX003 (ip), vehicle: other): 134 % of control
- T/C (T/C endpoint: mean survival time, dose: 108.0 mg/kg/injection, schedule: Q04DX003 (ip), vehicle: steroid suspending solution, evaluated on day 27): 127 % of control
- T/C (T/C endpoint: mean survival time, dose: 108.0 mg/kg/injection, schedule: Q04DX003 (ip), vehicle: steroid suspending solution, evaluated on day 45): 134 % of control
- T/C (T/C endpoint: mean survival time, dose: 180.0 mg/kg/injection, schedule: Q04DX003 (ip), vehicle: Klucel (hydroxypropylcellulose) (HPC), evaluated on day 7): 143 % of control
- T/C (T/C endpoint: mean survival time, dose: 180.0 mg/kg/injection, schedule: Q04DX003 (ip), vehicle: Klucel (hydroxypropylcellulose) (HPC), evaluated on day 30): 143 % of control
- T/C (T/C endpoint: mean survival time, dose: 180.0 mg/kg/injection, schedule: Q04DX003 (ip), vehicle: other): 144 % of control
- T/C (T/C endpoint: mean survival time, dose: 180.0 mg/kg/injection, schedule: Q04DX003 (ip), vehicle: steroid suspending solution): 143 % of control
- T/C (T/C endpoint: mean survival time, dose: 200.0 mg/kg/injection, schedule: Q04DX003 (ip), vehicle: steroid suspending solution, evaluated on day 19): 156 % of control
- T/C (T/C endpoint: mean survival time, dose: 200.0 mg/kg/injection, schedule: Q04DX003 (ip), vehicle: steroid suspending solution, evaluated on day 21): 141 % of control
- T/C (T/C endpoint: mean survival time, dose: 200.0 mg/kg/injection, schedule: Q04DX003 (ip), vehicle: steroid suspending solution, evaluated on day 33): 141 % of control
- T/C (T/C endpoint: mean survival time, dose: 200.0 mg/kg/injection, schedule: Q04DX003 (ip), vehicle: steroid suspending solution, evaluated on day 40): 139 % of control
- T/C (T/C endpoint: mean survival time, dose: 300.0 mg/kg/injection, schedule: Q04DX003 (ip), vehicle: Klucel (hydroxypropylcellulose) (HPC), evaluated on day 7): 149 % of control
- T/C (T/C endpoint: mean survival time, dose: 300.0 mg/kg/injection, schedule: Q04DX003 (ip), vehicle: Klucel (hydroxypropylcellulose) (HPC), evaluated on day 30): 149 % of control
- T/C (T/C endpoint: mean survival time, dose: 400.0 mg/kg/injection, schedule: Q04DX003 (ip), vehicle: steroid suspending solution, evaluated on day 19): 172 % of control
- T/C (T/C endpoint: mean survival time, dose: 400.0 mg/kg/injection, schedule: Q04DX003 (ip), vehicle: steroid suspending solution, evaluated on day 21): 145 % of control
- T/C (T/C endpoint: mean survival time, dose: 400.0 mg/kg/injection, schedule: Q04DX003 (ip), vehicle: steroid suspending solution, evaluated on day 33): 153 % of control
- T/C (T/C endpoint: mean survival time, dose: 400.0 mg/kg/injection, schedule: Q04DX003 (ip), vehicle: steroid suspending solution, evaluated on day 40): 164 % of control
- T/C (T/C endpoint: mean survival time, dose: 500.0 mg/kg/injection, schedule: Q04DX003 (ip), vehicle: Klucel (hydroxypropylcellulose) (HPC), evaluated on day 7): 127 % of control
- T/C (T/C endpoint: mean survival time, dose: 500.0 mg/kg/injection, schedule: Q04DX003 (ip), vehicle: Klucel (hydroxypropylcellulose) (HPC), evaluated on day 30): 127 % of control
- T/C (T/C endpoint: mean survival time, dose: 500.0 mg/kg/injection, schedule: Q04DX003 (ip), vehicle: other): 132 % of control
- T/C (T/C endpoint: mean survival time, dose: 500.0 mg/kg/injection, schedule: Q04DX003 (ip), vehicle: steroid suspending solution): 131 % of control
- survivor count (T/C endpoint: mean survival time, dose: 800.0 mg/kg/injection, schedule: Q01DX001 (ip), vehicle: steroid suspending solution): 8 of 8
- T/C (T/C endpoint: median survival time, dose: 8.0 mg/kg/injection, schedule: Q01DX009 (ip), vehicle: Klucel (hydroxypropylcellulose) (HPC)): 125 % of control
- T/C (T/C endpoint: median survival time, dose: 16.0 mg/kg/injection, schedule: Q01DX009 (ip), vehicle: Klucel (hydroxypropylcellulose) (HPC), evaluated on day 30): 130 % of control
- T/C (T/C endpoint: median survival time, dose: 16.0 mg/kg/injection, schedule: Q01DX009 (ip), vehicle: Klucel (hydroxypropylcellulose) (HPC), evaluated on day 31): 130 % of control
- T/C (T/C endpoint: median survival time, dose: 32.0 mg/kg/injection, schedule: Q01DX009 (ip), vehicle: Klucel (hydroxypropylcellulose) (HPC), evaluated on day 30): 143 % of control [9 of 10 alive]
- T/C (T/C endpoint: median survival time, dose: 32.0 mg/kg/injection, schedule: Q01DX009 (ip), vehicle: Klucel (hydroxypropylcellulose) (HPC), evaluated on day 31): 130 % of control
- T/C (T/C endpoint: median survival time, dose: 32.0 mg/kg/injection, schedule: Q01DX009 (ip), vehicle: Klucel (hydroxypropylcellulose) (HPC), evaluated on day 36): 126 % of control
- T/C (T/C endpoint: median survival time, dose: 64.0 mg/kg/injection, schedule: Q01DX009 (ip), vehicle: Klucel (hydroxypropylcellulose) (HPC), evaluated on day 30): 131 % of control
- T/C (T/C endpoint: median survival time, dose: 64.0 mg/kg/injection, schedule: Q01DX009 (ip), vehicle: Klucel (hydroxypropylcellulose) (HPC), evaluated on day 31): 145 % of control
- T/C (T/C endpoint: median survival time, dose: 180.0 mg/kg/injection, schedule: Q04DX003 (ip), vehicle: Klucel (hydroxypropylcellulose) (HPC), evaluated on day 5): 96 and 119 % of control
- T/C (T/C endpoint: median survival time, dose: 180.0 mg/kg/injection, schedule: Q04DX003 (ip), vehicle: Klucel (hydroxypropylcellulose) (HPC), evaluated on day 24): 119 % of control
- T/C (T/C endpoint: median survival time, dose: 180.0 mg/kg/injection, schedule: Q04DX003 (ip), vehicle: Klucel (hydroxypropylcellulose) (HPC), evaluated on day 26): 96 % of control
- T/C (T/C endpoint: median survival time, dose: 300.0 mg/kg/injection, schedule: Q04DX003 (ip), vehicle: Klucel (hydroxypropylcellulose) (HPC), evaluated on day 5): 117 and 130 % of control
- T/C (T/C endpoint: median survival time, dose: 300.0 mg/kg/injection, schedule: Q04DX003 (ip), vehicle: Klucel (hydroxypropylcellulose) (HPC), evaluated on day 24): 130 % of control
- T/C (T/C endpoint: median survival time, dose: 300.0 mg/kg/injection, schedule: Q04DX003 (ip), vehicle: Klucel (hydroxypropylcellulose) (HPC), evaluated on day 26): 117 % of control
- T/C (T/C endpoint: median survival time, dose: 500.0 mg/kg/injection, schedule: Q04DX003 (ip), vehicle: Klucel (hydroxypropylcellulose) (HPC), evaluated on day 5): 138 and 143 % of control
- T/C (T/C endpoint: median survival time, dose: 500.0 mg/kg/injection, schedule: Q04DX003 (ip), vehicle: Klucel (hydroxypropylcellulose) (HPC), evaluated on day 24): 138 % of control
- T/C (T/C endpoint: median survival time, dose: 500.0 mg/kg/injection, schedule: Q04DX003 (ip), vehicle: Klucel (hydroxypropylcellulose) (HPC), evaluated on day 26): 143 % of control
- T/C (T/C endpoint: median survival time, dose: 833.0 mg/kg/injection, schedule: Q04DX003 (ip), vehicle: Klucel (hydroxypropylcellulose) (HPC), evaluated on day 5): 107 and 116 % of control
- T/C (T/C endpoint: median survival time, dose: 833.0 mg/kg/injection, schedule: Q04DX003 (ip), vehicle: Klucel (hydroxypropylcellulose) (HPC), evaluated on day 24): 116 % of control
- T/C (T/C endpoint: median survival time, dose: 833.0 mg/kg/injection, schedule: Q04DX003 (ip), vehicle: Klucel (hydroxypropylcellulose) (HPC), evaluated on day 26): 107 % of control

Structure (SMILES): O=NN(CCF)C(=O)Nc1ccccc1
- T/C (T/C endpoint: mean survival time, dose: 12.0 mg/kg/injection, schedule: Q01DX001 (ip), vehicle: other): 126 % of control
- T/C (T/C endpoint: mean survival time, dose: 18.0 mg/kg/injection, schedule: Q01DX001 (ip), vehicle: other): 134 % of control
- survivor count (T/C endpoint: mean survival time, dose: 27.0 mg/kg/injection, schedule: Q01DX001 (ip), vehicle: other): 1 of 6

Structure (SMILES): O=NN(CCCl)C(=O)Nc1ccccc1
- survivor count (T/C endpoint: mean survival time, dose: 144.0 mg/kg/injection, schedule: Q01DX001 (ip), vehicle: carboxymethylcellulose (CMC)): 0 of 10
- survivor count (T/C endpoint: mean survival time, dose: 288.0 mg/kg/injection, schedule: Q01DX001 (ip), vehicle: carboxymethylcellulose (CMC)): 0 of 10

Structure (SMILES): CNC1=C(N2CC2)C(=O)C(NC)=C(N2CC2)C1=O
- T/C (T/C endpoint: mean survival time, dose: 0.4 mg/kg/injection, schedule: Q01DX009 (ip), vehicle: saline): 144 % of control
- survivor count (T/C endpoint: mean survival time, dose: 0.8 mg/kg/injection, schedule: Q01DX009 (ip), vehicle: saline): 4 of 6
